# Measured values taken from PubChem BioAssay AID758 (NMMLSC, 2007).
# About 110 (0.058%) of roughly 190,000 compounds were called active. The inconclusive results got no clear call from the source; some entries with a clear call stand among them for comparison.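 Rule for the calls: active = fluorescent GTP binding to Rab7 beads changed by at least 20 points from the 100% baseline, either direction, mostly lower; inconclusive = compound itself probably fluorescent, or too few beads counted; inactive = the rest.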
# Tested on: Rab7 GTPase wild type (dog), Bodipy-FL-GTP binding
# Assay: modulators of GTP binding to Rab7, primary screen, biochemical, wildtype, multiplex bead flow cytometry (AID 758);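 note: median green fluorescence of bound Bodipy-FL-GTP per Rab7 bead population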
# Details: GST-Rab7 beads, fluorescent GTP binding, at 10 µM, actives lie on both sides, untreated = 100%, excess cold GTP = 0%
row,Structure (SMILES),GTP binding activity (percent of control)
1,Cc1c(C(=O)C(=O)NCc2cccs2)c2ccccc2n1C,inactive: 103%
2,CSc1nnc(C)c(/C=C/Nc2ccc(C)cc2)n1,inconclusive: 82%
3,CC(C)(C)NC(=O)Cn1cnc2cc([N+](=O)[O-])ccc2c1=O,inconclusive: 92%
4,Cc1[nH]c2ccccc2c1C(=O)NS(=O)(=O)Nc1ccc(Cl)cc1,inactive: 95%
5,COc1ccc(S(=O)(=O)N2CCN(CC(=O)Nc3cccc(F)c3)CC2)cc1,inconclusive: 110%
6,Cc1ccc(-c2cc(=O)[nH][nH]2)c(C)c1,inconclusive: 103%
7,CC(C)(C)C1=C(C#N)C(c2cccnc2)C(C#N)=C(N)O1 (configuration not stated),inconclusive: 100%
8,O=C(O)C1C2C=CC(C2)C1C(=O)N1CCOCC1 (configuration not stated),active: 22%
9,C=CCNc1nc(N)c(C(=C(C#N)C#N)c2ccc(Br)cc2)s1,inconclusive: 87%
10,Cc1ccc(N=C2S/C(=C\c3cn(CC(=O)O)c4ccccc34)C(=O)N2C)cc1,inconclusive: 94%
11,CCN(CC)C(=O)CSc1nc2ccccc2c(=O)n1-c1cccc(OC)c1,inconclusive: 100%
12,Cc1cccc(NC(=O)c2ccc([N+](=O)[O-])cc2Cl)n1,inconclusive: 103%
13,Cc1ccc(-c2cc(C(=O)NCc3cccs3)no2)cc1,inconclusive: 91%
14,Cc1ccc(C(=O)n2nc(-n3cccc3)c3c(C)cc(C)nc32)cc1,inconclusive: 84%
15,CN(CCCNC(=O)c1cn(C)c2ccc(S(=O)(=O)N(C)C)cc2c1=O)c1ccccc1,inconclusive: 104%
16,CCOc1ccc(C2CC(c3c(O)c4ccccc4oc3=O)=NN2c2ccccc2)cc1OC (configuration not stated),inactive: 94%
17,Cc1sc2nc3c4ccccc4c(NCc4ccco4)nn3c(=O)c2c1C,inactive: 87%
18,COc1ccc2ccccc2c1/C=N/NC(=S)Nc1cc(S(=O)(=O)N2CCOCC2)ccc1N1CCOCC1,inactive: 97%
19,O=C(COc1cccc(Cl)c1)Nc1nc(-c2ccc(S(=O)(=O)N3CCOCC3)cc2)cs1,inconclusive: 96%
20,O=C1Nc2ncccc2OC1CCO (configuration not stated),inactive: 102%
21,COc1ccc(C(=O)CC(Nc2ccc([N+](=O)[O-])cc2)c2ccc(Cl)cc2)cc1 (configuration not stated),inactive: 96%
22,Cc1ccc(C2(C)NC(=O)N(CCOc3ccccc3)C2=O)cc1 (configuration not stated),inconclusive: 104%
23,O=C1Cn2c(nc3ccccc32)-c2ccccc2N1,inconclusive: 97%

row,Structure (SMILES),GTP binding activity (percent of control)
1,Nc1[nH]n2c(=O)c3c(nc2c1N=Nc1ccccc1)CCCC3,inactive: 94%
2,COc1ccc(S(=O)(=O)NNC(=O)c2cccs2)cc1,inconclusive: 93%
3,CC1(C)CC(O)C(C(O)c2cccc([N+](=O)[O-])c2)C(C)(C)N1 (configuration not stated),inconclusive: 102%
4,CCOC(=O)n1c(=O)n(C)c2ccc(Cl)cc21,inconclusive: 97%
5,C(=N\Nc1nn2cnnc2c2ccccc12)/c1ccco1,inactive: 87%
6,COc1ccc(-c2nc3cc(NC(=O)Cc4ccc(OC)c(OC)c4)ccc3o2)cc1,inconclusive: 98%
7,Cn1c2c(c(=O)n(C)c1=O)CN(CCc1ccccc1)CN2,inconclusive: 102%
8,COc1ccc(CCNS(=O)(=O)c2ccc3c(c2)CCN3C(=O)C2CC2)cc1OC,inconclusive: 107%
9,Cc1ccccc1C1(CCN2CCCCC2)CCOC(C)(C)C1 (configuration not stated),inconclusive: 97%
10,NC(=O)c1nn(-c2ccccc2)nc1NC(=O)Cn1nnc(-c2ccccc2)n1,inactive: 99%
11,Cc1ccc(NC(=O)/C(C#N)=C/c2cc(C)n(-c3ccc(N4CCOCC4)c([N+](=O)[O-])c3)c2C)c(C)c1,inconclusive: 114%
12,NNC(=O)[C@H]1C[C@@H]1c1ccccc1,inconclusive: 103%
13,Cc1sc2nc(SCC(=O)N3CCCCC3)[nH]c(=O)c2c1C,inconclusive: 99%
14,Oc1c(CN2CCOCC2)ccc2ccccc12,inconclusive: 115%
15,Cc1cccc2cc(-c3ccccc3)c(-c3ccccc3)c[n+]12,inactive: 98%
16,COc1ccccc1Cn1c(SCC(N)=O)nc2c(oc3ccccc32)c1=O,inactive: 96%
17,CC(C)n1c2ccccc2c2cc([N+](=O)[O-])ccc21,inconclusive: 101%
18,Cc1ccc(-c2cn3cccc(C)c3n2)cc1,active: 120% [activator]
19,CC1=C(C)[N+](=O)C2(O)CCCCC2(C)N1[O-] (configuration not stated),inconclusive: 102%
20,CCOC(=O)c1ccc(NC(=O)C2(c3ccccc3)CCOCC2)cc1,inconclusive: 96%
21,CN(C(=O)CSc1ncnc2scc(-c3ccccc3)c12)C1CCS(=O)(=O)C1 (configuration not stated),inconclusive: 112%
22,COCCCNC(=S)NCCCNc1nc2cc3c(cc2cc1C#N)OCO3,inconclusive: 95%
23,CC1Cc2ccccc2N1C(=S)NC(=O)c1ccco1 (configuration not stated),inconclusive: 97%

row,Structure (SMILES),GTP binding activity (percent of control)
1,COCCCNC(=O)c1cc(C(=O)c2ccccc2Br)c[nH]1,inconclusive: 92%
2,O=C(CSc1n[nH]c(=O)[nH]c1=O)N/N=C/c1ccccc1,inconclusive: 231%
3,Cc1onc(-c2ccccc2Cl)c1C(=O)NCc1ccc(N2CCCC2=O)cc1,inconclusive: 101%
4,C=CC#CC[N+]1(CC#Cc2ccccc2)CCOCC1,inactive: 101%
5,O=C(Nc1nnc(CSCc2ccccc2F)s1)c1cccc([N+](=O)[O-])c1,inconclusive: 95%
6,Nc1ccc(C(=O)Nc2ccc3nc(-c4ccncc4)[nH]c3c2)cc1,inconclusive: 97%
7,COc1ccc(C(=O)Nc2nc3nccc(-c4ccccc4)n3n2)cc1,inactive: 100%
8,CC(=O)Nc1cccc(NS(=O)(=O)c2cccc3nsnc23)c1,inconclusive: 105%
9,NC(=O)C1(N2CCCCC2)CCN(C2CC(=O)N(CCc3ccccc3)C2=O)CC1 (configuration not stated),inconclusive: 91%
10,Cc1nn(CC(=O)c2ccc(Cl)cc2Cl)c(C)[n+]1N,inconclusive: 101%
11,Cc1c(C)n(C)c2ccc(C(=O)Nc3cccc4ccccc34)cc12,inactive: 95%
12,Cc1cc(C)c(S(=O)(=O)N2CCOCC2)cc1C,inactive: 101%
13,Fc1ccccc1NC(=S)N/N=C/c1ccccc1Br,inactive: 101%
14,COCCOC(=O)C1=C(C)Nc2nc(C)nn2C1c1ccccc1 (configuration not stated),inconclusive: 104%
15,CN(C)C(=O)c1nc2ccc(Cl)cn2c1CNCc1ccccc1OC(F)(F)F,inactive: 95%
16,CCOc1ccc(OCC)c(NC(=O)CCSCCc2ccccn2)c1,inactive: 103%
17,O=C(O)CCc1ccc(-c2cccs2)o1,inconclusive: 90%
18,Fc1cccc(NC(=S)NNc2c3ccccc3nc3ccccc23)c1,inconclusive: 85%
19,COc1cccc(C(=O)COc2cccc(NC(=O)c3ccco3)c2)c1,inconclusive: 95%
20,Cc1ccc(C(=O)Nc2ncc(Cc3ccc(SC(F)F)cc3)s2)cc1,inactive: 96%
21,CCCCN1C(=O)C(NC(=O)C2CC2)(C(F)(F)F)C2=C1CC(C)(C)CC2=O (configuration not stated),inactive: 100%
22,COc1cc2nc(CN3CCC(C(O)(c4ccccc4)c4ccccc4)CC3)[nH]c(=O)c2cc1OC,inactive: 96%
23,Cn1[nH]c(C(F)(F)F)cc1=O,inactive: 98%

# Single entries from the entries so far.
# In GTP binding activity (percent of control), Fc1ccccc1NC(=S)N/N=C/c1ccccc1Br shows inactive: 101%
# In GTP binding activity (percent of control), Cc1cc(C)c(S(=O)(=O)N2CCOCC2)cc1C shows inactive: 101%
# In GTP binding activity (percent of control), COc1ccc(C(=O)Nc2nc3nccc(-c4ccccc4)n3n2)cc1 shows inactive: 100%
# In GTP binding activity (percent of control), COCCCNC(=O)c1cc(C(=O)c2ccccc2Br)c[nH]1 shows inconclusive: 92%

# Continuation:

row,Structure (SMILES),GTP binding activity (percent of control)
1,CC(C)c1cc(C(=O)Nc2ccc3c(c2)OCO3)no1,inconclusive: 102%
2,Cc1cc(N2C(=O)C3CC=CCC3C2=O)cc(C)c1Br (configuration not stated),inactive: 100%
3,COc1ccc(-n2cccc2/C=C2/NC(=O)N(c3cccc(Cl)c3)C2=O)cc1,inactive: 104%
4,CCOc1ccccc1OCCn1nnc2ccccc21,inconclusive: 95%
5,CCN(CC)CC1(O)CCN(C(=O)c2ccc(Cl)c(Cl)c2)CC1,inconclusive: 101%
6,Cc1[nH]n(-c2ccc([N+](=O)[O-])cc2)c(=O)c1C=NCCc1c(C)[nH]c2ccccc12,inactive: 99%
7,COc1ccc(NC(=O)CC2CC3CCC2C3)cn1 (configuration not stated),inconclusive: 94%
8,CCn1c(=O)n(CC(=O)Nc2ccc(F)cc2)c(=O)c2ccccc21,inactive: 107%
9,CC(=O)Nc1ccc(NC(=O)CCn2nnc3ccccc32)cc1,active: 39%
10,O=C(Nc1ccccc1Cl)c1ccccc1Cc1ccccc1,inactive: 103%
11,Cc1ccc([N+](=O)[O-])cc1-c1ccc(/C=C(\C#N)c2[nH]nc(N)c2C#N)o1,inactive: 87%
12,COc1ccc(C(C(=O)NC2CCCC2)N(C(=O)c2snc(-c3ccc(F)cc3)c2N)c2ccc(F)cc2)cc1 (configuration not stated),inconclusive: 103%
13,CCC(C(=O)N1CCc2cc(OC)c(OC)cc2C1)c1ccccc1 (configuration not stated),inconclusive: 101%
14,O=C(NNc1ccc([N+](=O)[O-])cc1)C1CC2CCCC(C1)C2=O (configuration not stated),inconclusive: 93%
15,Cc1nc2ncccn2c1-c1csc(Nc2ccc(O)cc2)n1,inconclusive: 66%
16,O=C(Cc1csc(N2CCOCC2)n1)N/N=C/c1cccc(O)c1,inconclusive: 104%
17,CCOC(=O)C1(C)NC(c2ccccc2F)C2C(=O)N(CC)C(=O)C21 (configuration not stated),inactive: 104%
18,O=C(O)C1C(C(=O)Nc2ccc(Cl)cc2)C2C=CC1C21CC1 (configuration not stated),inconclusive: 192%
19,COc1ccc(NS(=O)(=O)c2ccc(N/N=C/c3ccc(N4CCOCC4)cc3)c([N+](=O)[O-])c2)cc1,inconclusive: 97%
20,Cc1ccc(C)c(NC(=S)NNC(=O)c2cc3c(s2)CCC(C)C3)c1 (configuration not stated),inconclusive: 153%
21,CC(=O)c1cc(OC(=O)N2CCOCC2)ccc1OC(=O)N1CCOCC1,inconclusive: 92%
22,COc1ccc(-n2c(=O)[nH]c3c(C(N)=O)nc(C4CCCCC4)nc32)cc1,inactive: 101%
23,Cc1ccc(C(=O)N/C(=C\c2cccs2)C(=O)NCCc2ccccn2)cc1C,inactive: 106%

row,Structure (SMILES),GTP binding activity (percent of control)
1,CCOC(=O)N1CCN(S(=O)(=O)c2cc([N+](=O)[O-])ccc2C)CC1,inconclusive: 99%
2,c1ccc2c(c1)[nH]c1c(N3CCOCC3)ncnc12,inconclusive: 93%
3,CN1CCC(=NNC(=O)C(=O)Nc2ccccc2F)CC1,inactive: 106%
4,Cc1cc(CNC(=O)c2ccc(C)c([N+](=O)[O-])c2)c2ccccc2n1,inactive: 99%
5,O=c1[nH]cc(S(=O)(=O)c2ccccc2)[nH]1,inconclusive: 97%
6,CC(=O)c1ccc(NC(=S)NNC(=O)c2ccncc2)cc1,inactive: 104%
7,NS(=O)(=O)c1ccc(N2N=C(c3ccccc3)CC2c2ccccc2)cc1 (configuration not stated),inactive: 94%
8,CC(CC(=O)NC1CCSC1=O)c1ccccc1 (configuration not stated),inconclusive: 105%
9,CC1=C(C(N)=O)C(c2cccnc2)n2nc(SCc3ccccc3Cl)nc2N1 (configuration not stated),inconclusive: 99%
10,CCOC(=O)N1CCN(c2c(N3CCc4ccccc43)c(=O)c2=O)CC1,inconclusive: 103%
11,COc1cc(NC(=O)c2ccc3c(c2)OCCO3)ccc1NC(=O)c1ccco1,inconclusive: 101%
12,COc1ccc(/C=C/c2c([N+](=O)[O-])c(=O)n(C)c(=O)n2C)c(OC)c1,inconclusive: 94%
13,NC1=NC(=O)/C(=C/c2cn(CCC(=O)O)nc2-c2ccc(F)cc2)S1,inactive: 98%
14,CCN1CCN(c2ccc(NC(=O)c3cccc(F)c3)cc2Cl)CC1,inactive: 97%
15,CC(C)c1nc2oc3c(=O)[nH]cnc3c2c2c1CCC2,inactive: 81%
16,N#C/C(=C\c1ccc(N2CCCCC2)o1)C(=O)Nc1cccc(Br)c1,inconclusive: 114%
17,Fc1ccccc1-c1csc(=Nc2cccnc2)n1CCCn1ccnc1,inactive: 101%
18,O=C1CN=C(Nc2ccccc2Cl)N1Cc1ccc2c(c1)OCO2,inconclusive: 101%
19,CC#CCC(CC#CC)c1nc2ccccc2c(=O)n1N,inconclusive: 105%
20,Cc1ccc(C)c(NC(=O)C2CCCN2C(=O)NC2CCCCC2)c1 (configuration not stated),inactive: 101%
